Binding data for 20 molecules are collected here from patent US20030223996A1 (published 2003).

Amino acid sequences for entries named in this document (tags omitted). Residues count along the entry.
UniProt Q9WU72, residues 127-309: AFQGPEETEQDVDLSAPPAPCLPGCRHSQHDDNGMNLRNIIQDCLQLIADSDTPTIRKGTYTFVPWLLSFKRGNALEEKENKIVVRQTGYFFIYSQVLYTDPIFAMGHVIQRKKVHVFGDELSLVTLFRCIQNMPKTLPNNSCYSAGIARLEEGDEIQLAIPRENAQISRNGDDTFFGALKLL

B1: I016F02 (scFv)
scFv: GVQLVESGAEVKKPGASVKVSCRTSGYTFTSNSFSWVRQAPGQGLEWMGGIIPIFGTANYAQKLQGRVTITADELTRTVYMDLSSLRSEDTAVYYCATGMGDHYGMDVWGRGTLVTVSSGGGGSGGGGSGGGGSQSVLTQPASVSGSPGQSITISCTGTSSDVGGYNYVSWYQQHPGKAPKLMIYEGSKRPSGVSNRFSGSKSGNTASLTISGLQAEDEADYYCSSYTTRSTRVFGGGTKLTVLG
B2: I007H08 (scFv)
scFv: QVQLQQSGPGLVKPSQILSLTCAISGDSVASNGAAWNWIRQSPSRGLEWLGRTYYRSKWYVDYAVSVKSRITINPDTSKNQFSLQLNSVTPEDTAVYYCARDRYDILTGYYYYGMDVWGQGTMVTVSSGGGGSGGGGSGGGGSQSALTQPASVSGSRGQSITISCTGTTGDVGGYDYVSWYQQHPGKAPKLLIYGNSNRPSGVPDRFSASKSGNTASLTISGLQAEDEADYFCNTYAPPGIIMFGGGTKLTVLG
B3: I008A11 (scFv)
scFv: QVQLQQSGPGLVKPSQILSLTCAISGDSVASNGAAWNWIRQSPSRGLEWLGRTYYRSKWYVDYAVSVKSRITINPDTSKNQFSLQLNSVTPEDTAVYYCARDRYDILTGYYYYGMDVWGQGTMVTVSSGGGGSGGGGSGGGGSQSALTQPASVSGSRGQSITISCTGTTGDVGGYDYVSWYQQHPGKAPKLLIYGNSNRPSGVPDRFSASKSGNTASLTISGLQAEDEADYFCSTYAPPGIIMFGGGTKLTVLG
B4: I008A09 (scFv)
scFv: GVQLVQSGGGVVQPGGSLRLSCAASGFTFSSYGMHWVRQAPGKGLEWVAVISYDGSNKYYADSVKGRFTISRDNSKNTLYLQMNSLRAEDTAVYYCARDREAYYDILTGYYLYYYYMDVWGRGTTVTVSSGGGGSGGGGSGGGGSQSVLTQPASVSGSPGQSITISCTGTSSDVGGYNYVSWYQQHPGKAPKLMIYEGSKRPSGVSNRFSGSKSGNTASLTISGLQAEDEADYYCSSYTTGSTRVFGGGTKLTVLG
B5: I006D08 (scFv)
scFv: QVQLQQSGAEVKKPGSSVRVSCKASGGTFNNNAINWVRQAPGQGLEWMGGIIPMFGTAKYSQNFQGRVAITADESTSTASMELSSLRSEDTAVYYCARSRDLLLFPHYGMDVWGRGTMVTVSSGGGGSGGGGSGGGGSAFSSELTQDPAVSVALGQTVRVTCQGDSLRSYYASWYQQKPGQAPVLVIYGKNNRPSGIPDRFSGSSSGNTASLTITGAQAEDEADYYCNSRDSSGNHWVFGGGTELTVLG
B6: I031G08 (scFv)
scFv: QVQLVQSGAEVKKPGSSVKVSCRASGGSFIDDSINWLRQAPGQGLEWVGGTIPLANRANYAQKFRDRATITADELTATVFLELTSLRSDDTALYYCARSSPPKWYDALTGHSSYHSAMDVWGRGTLVTVSSGGGGSGGGGSGGGGSAQSVLTQPPSASGTPGQRVTISCSGTNSNIGGNTVNWYQQLPGTAPRLLIYSNNQRPSGVPDRFSGSKSGTSASLAISGLQSEDEADYYCAARDDRLNAHVVFGGGTKVTVLG
B7: I017D10 (scFv)
scFv: RVQLVQSGAEVKKPGASVKVSCKASGYTFTSDHISWVRQAPGQGLEWMGWISPHHGKTNYAQKLQGRVTMTTDTSTSTAYMELRSLRSDDTAVYYCARVQMDSEYYDLLTGINVGPYYFDYWGKGTLVTVSSGGGGSGGGGSGGGGSSELTQDPAVSVALGQTVRITCQGDSLRSYYASWYQQKPGQAPVLVIYGKNNRPSGIPDRFSGSSSGNTASLTITGAQAEDEADYYCNSRDSSGNHVVFGGGTKLTVLG
B8: I029D07 (scFv)
scFv: QVQLQQSGAEVKKPGSSVKVSCKASGYTFTKYTMHWVRQAPGQGPEWMGWINGGSGDTKYSRKFQGRVTITKDTSASAAYMELSSLGSEDTALYYCARATYDPLTGYSFDGFDIWGQGTLVTVSSGGGGSGGGGSGGGGSQSVLTQPASVSGSPGQSITISCTGTSSDVGGYNYVSWYQQHPGKAPKLMIYDVSKRPSGVPDRFSGSKSGNTASLTISGLQAEDEGDYYCSSYAGPSRVFGGGTKVEIKR
B9: I021B05 (scFv)
scFv: QVQQSGADVKKPGGSLRLSCAASGFTFSSYSMNWVRQAPGKGLEWVSSISSSSSYIYYADSVKGRFTISRDNAKNSLYLQMNSLRAEDTAVYYCAREGGNYDILTGYYIGNGAFDIWGRGTMVTVSSGGGGSGGGGSGGGGSQSVLTQPASVSGSPGQSITISCTGTSSDVGGYNYVSWYQQHPGKAPKLMIYEGSKRPSGVSNRFSGSKSGNTASLTISGLQAEDEADYYCSSYTTRSTRVFGGGTKLTVLG
B10: I006D07 (scFv)
scFv: EVQLVESGGGVVQPGGSLRLSCAASGFTVNSYAMHWVRQAPGKGLQWVAVIPYDGSKKYYADSVKGRFTVSRDNSKNTLYLQMNSLRAEDTAVYYCARSHYDILTGLNYWYFDLWGRGTLVTVSSGGGGSGGGGSGGGGSSELTQDPAVSVALGQTVRITCQGDSLRSYYASWYQQKPGQAPVLVIYGKNNRPSGIPDRFSGSSSGNTASLTITGAQAEDEADYYCNSRGSSGNHVVFGGGTKLTVLG
B11: I018C10 (scFv)
scFv: GVQLVQSGPEVKKPGASVKVSCTASGYTFTSYGVSWVRQAPGQGLEWIGWISAHNGQTKYAEKFQGRVTMTRNTSISTAYMELSSLRSEDTVVYYCARDGSYDILTGYYIDNYMDVWGKGTMVTVSSGGGGSGGGGSGGGGSSELTQDPAVSVALGQTVRITCQGDSLRSYYTNWFQQKPGQAPLLVVYAKNKRPSGIPDRFSGSSSGNTASLTITGAQAEDEADYYCHSRDSSGNHVLFGGGTKLTVLG
B12: I001C09 (scFv)
scFv: GVQLVQSGPEVKKPGASVKVSCTASGYTFTSYGVSWVRQAPGQGLEWIGWISAHNGQTKYAEKFQGRVTMTRNTSISTAYMELSSLRSEDTAVYYCARDGSYDILTGYYIDNYMDVWGKGTMVTVSSGGGGSGGGGSGGGGSSELTQDPAVSVALGQTVRITCQGDSLRSYYTNWFQQKPGQAPLLVVYAKNKRPSGIPDRFSGSSSGNTASLTITGAQAEDEADYYCHSRDSSGNHVLFGGGTKLTVLG
B13: I018D07 (scFv)
scFv: GVQLVQSGPEVKKPGASVIVSCTASGYTFTSYGVSWVRQAPGQGLEWIGWISAHNGQTKYAEKFQGRVTMTRNTSISTAYMELSSLRSEDTAVYYCARDGSYDILTGYYIDNYMDVWGKGTMVTVSSGGGGSGGGGSGGGGSSELTQDPAVSVALGQTVRITCQGDSLRSYYTNWFQQKPGQAPLLVVYAKNKRPSGIPDRFSGSSSGNTASLTITGAQAEDEADYYCHSRDSSGNHVLFGGGTKLTVLG
B14: I012A06 (scFv)
scFv: QVQLQESGPGVVKPSQTLSLTCTVSGVSISSDSYYWSWIRQPAGKGPEWIGRIYPTGSTNYNPSLKSRVTISVDTSKNQFSLQLTSVTAADTAVYYCARGRWDYDLLTGEHLGYYFDYWGRGTLVTVSSGGGGSGGGGSGGGGSALSSELTQDPAVSVALGQTVRITCQGDTLRNYYASWYQQKPGQAPVLVIHSRNNRPSGIPDRFSGSSSGTTASLTITGSQAEDEADYYCNSRDSSGNVIFGGGTKLTVLG
B15: I022D01 (scFv)
scFv: EVNLRESGGGVDQPGRSLRLSCAASGFTFSSYGMHWVRQAPGKGLEWVAVISYDGSNKYYADSVKGRFTISRDNSKNTLYLQMNSLRAEDTAVYYCAKDGYYDILTGYSYYGMDVWGQGPMVAVSSGGGGSGGGGSGGGGSSELTQDPAVSVALGQTVRITCQGDSLRSYYTNWFQQKPGQAPLLVVYAKNKRPSGIPDRFSGSSSGNTASLTITGAQAEDEADYYCNSRDSSGNHVVFGGGTKLTVLG
B16: I061E07 (scFv)
scFv: QVQLQQSGAEVKKTGASVKVSCKASGYIFADYYVHWVRQAAGQGLEWMGWINPNTGSTKYAQKFQDRVTMTRDTSIKTVYMELRRLRSDDTALYYCARATYDPLTGYSFDGFDIWGKGTMVTVSSGGGGSGGGGSGGGGSQSVLTQPPSASGTPGQRVTISCSGSSSNIGSNTVNWYQRLPGAAPQLLIYNNDQRPSGIPDRFSGSKSGTSGSLVISGLQSEDEADYYCASWDDSLNGRVFGGGTKLTVLG
B17: I031G10 (scFv)
scFv: QVQLVQSGAEVKKPGSSVKVSCRVSGGSFTDDSINWLRQAPGQGLEWVGGTIPLANRANYAQKFRDRVTITADELTATVFLELTSLRSDDTALYYCARSSPPKWYDALTGDSSYHSAMDVWGRGTLVTVSSGGGGSGGGGSGGGGSAQSVVTQPPSVSAAPGQKVTISCSGSTSNIGRNYVSWYQQLPGTATKLLIYDNNKRPSGIPDRFSGSKSGTSATLGITGLQTGDEADYYCGTWDSSLRIYVFGTGTKVTVLG
B18: I061H01 (scFv)
scFv: QVQLVQSGGGLVKPGGSLRLSCAASGFTFSNAWMSWVRQAPGKGLQWVGRIKSKTDGGTTDYAAPVKGRFTISRDDSKNTLYLQMNSLKTEDTAVYYCTTFNPTYDILTGYYIGGYFQHWGQGTMVTVSSGGGGSGGGGSGGGGSQSVLTQPASVSGSPGQSITISCTGTSSDVGGYNYVSWYQQHPGKAPKLMIYEGSKRPSGVSNRFSGSKSGNTASLTISGLQAEDEADYYCSSYTTRSTRVFGGGTQLTVLG
B19: I007B03 (scFv)
scFv: GVQLQQSGAEVKKPGSSVKVSCKASGGTFNTSGITWVRQAPGQGLEWMGWMNPNTGDTAYAQEFQGRVIMTRDTSISTAYMELSSLRSEDTAVYYCARDGSYDILTGYYIDNYMDVWGQGTMVTVSSGGGGSGGGGSGGGGSQSVLTQPASVSGSPGQSITISCTGTSSDVGGYNYVSWYQQHPGKAPKLMIYEGSKRPSGVSNRFSGSKSGNTASLTISGLQAEDEADYYCSSYTTRSTRVFGGGTKLTVLG
B20: I031C07 (scFv)
scFv: EVQLVQSGAEVKKPGSSVKVSCRASGGSFIDGSINWLRQAPGQGLEWVGGTIPLANRANYAQKFRDRVTITADELTAIVFLELTSLRSDDTALYYCARSSPPRWYDALTGDSSYHSAMDVWGQGTMVTVSSGGGGSGGGGSGGGGSAQSALTQPPSASGSPGQSVTISCSGTSSDIGDSNSVSWYQQHPGKAPKLLIYEVTKRPSGVPDRFAGSRSDNTASLTVSGLQTEDEADYYCSSSAARNHLVFGGGTKVTVLG

No constants are given. Whether binding was seen depends on the method and setting. Some binding calls cover weakened binding; strength is not graded here.

The target of this experiment is mouse BLyS (mouse) (UniProt Q9WU72). Put plainly: phage ELISA. In general terms: An ELISA detects its analyte on a solid surface through an enzyme-linked reagent.
As to B1, the binding entry is “binds”. Under B2 stands “binds”; under B3, “binds”; under B4, “binds”.

Turning to B5, the binding entry was “binds”. For B6, the binding result was “binds”. Then B7, with “binds”; and B8, with “binds”. Under B9 stands “binds”. Then B10, with “binds”; and B11, with “binds”; and B12, with “binds”. Turning to B13, the binding entry is on record as “binds”.

On to B14, for which the binding entry was “binds”. For B15, the binding result is on record as “binds”.

Turning to B16, the binding entry was “binds”. Then B17, with “binds”. Then B18, with “binds”; and B19, with “binds”.

In the case of B20, the binding result is on record as “binds”.
